From paper PMC3979679
Results are given in words; binding and its absence hold for the method and conditions named. For part of these data: In cells and extracts the contact can be indirect. Some results given as binding are weak or reduced against the parent protein; the word gives no strength. For part of these data: Sequences can lack the tags named with a protein. Each block holds one binder with its values, some of them ahead of it.

How the values were obtained:
[1] = molecular target: T1, FLAG-tagged Mind bomb 2 (Mib2) (zebrafish) (UniProt A0AR23); experiment: co-IP; COS7 cells co-transfected with FLAG-tagged Mib/Mib2 and Myc- or HA-tagged partner; lysate in IONIC buffer (50 mM Tris HCl pH 7.4, 150 mM NaCl, 1% Triton X-100); anti-FLAG M2 affinity gel 2 h at 4°C; blot with anti-Myc or anti-HA
T1 sequence: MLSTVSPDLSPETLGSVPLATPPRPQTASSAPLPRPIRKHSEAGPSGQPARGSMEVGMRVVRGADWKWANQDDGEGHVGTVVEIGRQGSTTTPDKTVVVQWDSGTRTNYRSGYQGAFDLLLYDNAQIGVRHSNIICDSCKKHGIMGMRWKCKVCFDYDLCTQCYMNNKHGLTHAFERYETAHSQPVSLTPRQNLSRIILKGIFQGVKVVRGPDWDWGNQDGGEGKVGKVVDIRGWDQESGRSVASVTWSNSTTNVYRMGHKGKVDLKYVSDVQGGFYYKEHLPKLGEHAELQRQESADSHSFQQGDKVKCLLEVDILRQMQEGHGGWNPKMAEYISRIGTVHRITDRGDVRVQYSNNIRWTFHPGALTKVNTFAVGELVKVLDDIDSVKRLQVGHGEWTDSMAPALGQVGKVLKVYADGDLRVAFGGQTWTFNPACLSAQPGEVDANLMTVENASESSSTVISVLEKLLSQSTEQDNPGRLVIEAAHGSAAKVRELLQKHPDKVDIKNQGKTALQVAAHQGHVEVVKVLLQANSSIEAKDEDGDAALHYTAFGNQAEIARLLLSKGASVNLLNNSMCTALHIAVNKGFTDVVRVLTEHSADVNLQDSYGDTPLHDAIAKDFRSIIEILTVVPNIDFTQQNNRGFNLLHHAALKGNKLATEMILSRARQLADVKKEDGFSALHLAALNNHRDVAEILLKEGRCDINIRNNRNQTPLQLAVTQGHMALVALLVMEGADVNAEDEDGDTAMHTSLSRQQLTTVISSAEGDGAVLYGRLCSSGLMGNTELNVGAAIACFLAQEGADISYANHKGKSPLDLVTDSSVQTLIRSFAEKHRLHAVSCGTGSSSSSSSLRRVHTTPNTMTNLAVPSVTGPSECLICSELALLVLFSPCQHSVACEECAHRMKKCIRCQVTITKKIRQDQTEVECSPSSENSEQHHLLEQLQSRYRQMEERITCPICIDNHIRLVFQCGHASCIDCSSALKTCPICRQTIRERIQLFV

[2] = molecular target: T2, Mib2-C-RF12 (781-999 aa) (zebrafish) (UniProt A0AR23); experiment: two-hybrid; first screen (Hybrigenics): LexA DNA-binding domain-bait and Gal4 activation domain-prey, HIS3 reporter, in the nucleus; random-primed Danio rerio embryo (18-20 hpf) cDNA library
T2 sequence: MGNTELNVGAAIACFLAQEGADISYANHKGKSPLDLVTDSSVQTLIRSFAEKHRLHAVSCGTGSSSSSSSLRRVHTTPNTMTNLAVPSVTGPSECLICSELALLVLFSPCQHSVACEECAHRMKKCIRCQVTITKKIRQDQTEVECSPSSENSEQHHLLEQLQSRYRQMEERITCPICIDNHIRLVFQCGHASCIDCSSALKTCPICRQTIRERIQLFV

B1: Trabid C (295-716 aa), Myc-tagged (domain or fragment, UniProt A0JMQ9 295-716)
chain: SGGDIARQLTADEVRILNRPSAFDAGFTLVHLAIRFQRQDMLAVLLTEVSQQTAKCIPALVCPELTEQIRREVAAALHRRKGEFPCYFFTDLVTFTLPADIEDLPPNVQEKLFDEVLDRDVQKELEEESPIINWSLELGTRLDSRLYALWNRTAGDCLLDSVLQATWGIYDKDSVLRKSLNDSLHDCSHWFYTRWKEWESWYSQSFGLHFSLREEQWQEDWAFILSLASQPGASLEQTHVFVLAHILRRPIIVYGVKYYKSFRGETLGYTRFQGVYLPLLWEQSFCWKSPIALGYTRGHFSALVAMENDGYDNRGAGANLNTDDDVTVTFLPLVDSERKLLHIHFLSAQEMGTEEQQERMLRQWMDCCVTEGGVLVAMQKSSRRRNHPLVTQMVEKWLDGYRQLAACPTLSDGEEEEEDEDE
binding [1]: binds

B3: Fih-1 (full length), Myc-tagged (protein, UniProt P59723 1-344)
chain: MAETDGAAAFTELRDPDWDESQLRQYTFPTRQIPRLSHTDPRAEVLINNEEPVVLTDTSLVYPALKWDIPYLQENIGNGDFSVYIAENHKFLYYDEKKMVNFQDFVPKSRRIEMKFSEFVDKMHQTEEQGGKGRVYLQQTLNDTVGRKIVVDFLGFNWNWINKQQAKRNWGPLTSNLLLIGMEGNVTPAHYDEQQNFFAQIKGHKRCILFPPDQFDCLYPYPVHHPCDRQSQVDFENPDYDKFPNFKNAVGYEAVVGPGDVLYIPMYWWHHIESLLNGGETITVNFWYKGAPTPKRIEYPLKAHQKVAIMRNIEKMLGEALGDPHEVGPLLNMMIKGRYDHGLS
binding [1]: binds

B6: Usp1 C (349-772 aa), Myc-tagged (domain or fragment, UniProt A0A8M1PE43 349-772)
chain: SIFSKFRSMGRITSHVGAKGETKEKSDCSSQEKQDKDNSENENKTHEVKQDLGKNEEQSGLDVLKWMFQGQLVLRTRCLECECFTERREDFQDISVPVQEDETLSSDSSSEISPDPKTELKTLKWAISQFASVERIVGQDKYFCETCHHYTEAERSLLFDKTPEVITIHLKCFAANGSEMDPYAGLSKVNTPLQTPLKLSLHEWCTQPDSPDYELFAVVMHSGVTISSGHYTTYIRMMDLHHTNIKPQTQDEEHDRDQEEDMKQKKEETSQTDYDDGEVSFSLSGRGRNVARTSGTNNMSSKTAGKRCSEGVGLLGGQRSITSYELSNSKQNNPDKPSSLSSRALLQNAVKKEPEEDCADAVADGTQVSFDLALRNLLDFEGKWMLFDDSEVRLYEEEDFLRACSPETCSTSTPYLLFYKRVSQ
binding [1]: binds

Continued, values first:

binding [2]: binds
B2: …: Danio rerio similar to limb expression 1 (lix1), prey (domain or fragment, UniProt A2BF97 1-267)
chain: MSGADSDDDRAFKDLNVVGMLHKFWEQKQAAGVMMEIENLVVYESIPSPSPPFICYVTLPGGSCFGNFKHCYSKAEARRDAARVALMNSTFNELPCRRITPEFISHSVKEAVSTTSGNIADASDPSTSIGAYCLMLELNTGKTMLEFQEIMTVFQLLHWNGTLKAFRDMRCSRQEVIQYYSQQRLDERTRSHMALDWLQKELQSPGLLSQELQLAVKELGEARRTGRELRFYKEKKEILSLALSHADAEDLEEEMSWREATEFDCFE

binding [2]: binds
B4: ankyrin repeat domain 52a (ankrd52a), prey (domain or fragment, UniProt Q502K3 230-510)
chain: AEIDEPNAFGNTALHVACYTGQEAVANELVNRGANVNQPNHRGYTPLHLAAVSTNGALCLELLVNNGADVNMQSKEGKSPLHMAAIHGRFTRSQILIQNGGEIDCVDRYGNTPLHVAAKYGHELLISTLMTNGADTARQGIHGMFPLHLAVLYGSSDCCRKLLSSGQLYSIVLSMSKEHVLSAGFDINTPDNFGRTCLHAAASGGNIECLNLLLSSGADMNKKDKFGRTPLHYAAANGRYQCVVVLVGAGAEVNERDRSGCTPLHYSAASTAFCRTDRPHA

binding [2]: binds
B5: rapunzel (rpz), prey (domain or fragment, UniProt F1QUP1 47-227)
chain: VVLHHVDDEDLQKLKREFGSVNRALDEISQQNRQALLQIRKETVDRQYHEVEENIRHQFRKFMEIMEAKPEHLQRKKEDFVESFINDKDDQNMYTLYDGVMGKRKLFSQPILDVYMKHSQGDHRVMENLCTRLAYLFCIGFIALMGYYGILGDDLESRNEEWEENMRNVQEKMQEVLRSCK
